The target of this assay is T1, PhoH-like protein domain-containing protein YbeZ (P. aeruginosa) (UniProt Q9HX38).
T1 sequence: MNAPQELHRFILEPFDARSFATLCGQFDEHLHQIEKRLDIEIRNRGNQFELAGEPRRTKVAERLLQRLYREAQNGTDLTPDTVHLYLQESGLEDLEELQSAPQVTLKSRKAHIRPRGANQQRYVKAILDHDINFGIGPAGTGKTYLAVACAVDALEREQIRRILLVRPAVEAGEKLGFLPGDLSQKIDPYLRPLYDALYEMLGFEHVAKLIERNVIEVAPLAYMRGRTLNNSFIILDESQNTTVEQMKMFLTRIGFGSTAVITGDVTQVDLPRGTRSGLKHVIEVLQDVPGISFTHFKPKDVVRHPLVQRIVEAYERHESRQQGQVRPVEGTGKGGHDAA
Kind of assay: two-hybrid.

This passage reports binding results from publication doi:10.1101/2024.04.12.589144.

Results are given in words; binding and its absence hold for the method and conditions named. A result given as binding can be weak or reduced; the word gives no strength.

As for “ribosomal silencing factor RsfS (P. aeruginosa)”, the binding result is recorded as “binds”.
